These are yes or no findings as the source states them, for the method shown. Some binding calls cover weakened binding; strength is not graded here.
What was measured:
[1] = target: T1, receptor clone 46 (portion of the mouse homolog of human bladder cancer-associated protein 10, bc10) (murine); experiment: bacterial two-hybrid (BacterioMatch), peptide bait against heart cDNA target clone
T1 sequence: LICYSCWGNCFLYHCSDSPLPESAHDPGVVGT

[2] = target: T2, murine cysteine-rich protein 2 / heart LIM-protein (HLP/CRIP2), full length (murine) (UniProt Q9DCT8); experiment: phage binding to receptor-transfected 293T cells, plaque assay
T2 sequence: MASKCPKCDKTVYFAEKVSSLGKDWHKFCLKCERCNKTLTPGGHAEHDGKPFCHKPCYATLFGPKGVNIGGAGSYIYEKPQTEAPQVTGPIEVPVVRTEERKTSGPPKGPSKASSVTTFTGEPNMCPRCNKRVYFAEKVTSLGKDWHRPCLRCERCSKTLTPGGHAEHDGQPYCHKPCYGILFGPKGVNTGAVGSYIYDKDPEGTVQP

[3] = target: T2, murine cysteine-rich protein 2 / heart LIM-protein (HLP/CRIP2), full length (murine); experiment: phage binding to CRIP2-transfected 293T cells (FIG. 4A)
[4] = target: T2, murine cysteine-rich protein 2 / heart LIM-protein (HLP/CRIP2), full length (murine); experiment: ex vivo phage binding to cell suspensions prepared from mouse heart; receptor taken as HLP/CRIP2 by the filing (FIG. 7)
[5] = target: T3, murine single Ig IL-1 receptor related protein (Sigirr/TIR8), full length (murine) (UniProt Q9JLZ8); experiment: phage binding to receptor-transfected 293T cells, plaque assay
T3 sequence: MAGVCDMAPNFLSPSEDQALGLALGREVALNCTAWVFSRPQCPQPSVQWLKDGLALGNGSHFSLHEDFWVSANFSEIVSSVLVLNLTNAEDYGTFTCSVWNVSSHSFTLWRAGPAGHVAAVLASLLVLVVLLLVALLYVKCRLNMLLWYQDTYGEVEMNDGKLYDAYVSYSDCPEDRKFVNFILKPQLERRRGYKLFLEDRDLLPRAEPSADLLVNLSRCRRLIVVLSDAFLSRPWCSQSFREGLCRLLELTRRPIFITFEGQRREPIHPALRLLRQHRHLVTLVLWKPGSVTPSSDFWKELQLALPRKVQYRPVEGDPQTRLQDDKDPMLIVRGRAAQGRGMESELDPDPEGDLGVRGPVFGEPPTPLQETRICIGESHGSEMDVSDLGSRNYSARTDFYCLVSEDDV

[6] = target: T3, murine single Ig IL-1 receptor related protein (Sigirr/TIR8), full length (murine); experiment: phage binding to Sigirr-transfected 293T cells (FIG. 4B)
[7] = target: T4, MpcII-3-related protein (murine polypeptide with putative similarity to integral membrane protein CII-3), full length (murine) (UniProt Q9CZB0); experiment: phage binding to receptor-transfected 293T cells, plaque assay
T4 sequence: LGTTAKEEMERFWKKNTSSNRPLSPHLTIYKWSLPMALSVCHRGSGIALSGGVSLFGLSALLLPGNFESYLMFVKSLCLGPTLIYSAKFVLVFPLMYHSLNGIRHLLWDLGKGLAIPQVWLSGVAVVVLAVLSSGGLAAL

[8] = target: T4, MpcII-3-related protein (murine polypeptide with putative similarity to integral membrane protein CII-3), full length (murine); experiment: phage binding to 293T cells transfected with MpcII-3-related protein SEQ ID NO: 33 (FIG. 4C)
[9] = target: T5, murine bladder cancer-associated protein homolog (bc10), full length (murine) (UniProt P62951); experiment: phage binding to receptor-transfected 293T cells, plaque assay
T5 sequence: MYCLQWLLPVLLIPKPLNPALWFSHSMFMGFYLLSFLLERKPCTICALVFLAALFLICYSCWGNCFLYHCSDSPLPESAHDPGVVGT

[10] = target: T5, murine bladder cancer-associated protein homolog (bc10), full length (murine); experiment: phage binding to bc10-transfected 293T cells (FIG. 4D)
[11] = target: T4, MpcII-3-related protein (murine polypeptide with putative similarity to integral membrane protein CII-3), full length (murine); experiment: competition: free peptide against … phage on 293T cells transfected with SEQ ID NO: 33 (FIG. 4C)
[12] = target: T4, MpcII-3-related protein (murine polypeptide with putative similarity to integral membrane protein CII-3), full length (murine); experiment: competition: free peptide against … phage on MpcII-3-related protein-transfected 293T cells
[13] = target: T6, receptor clone 15 (portion of single Ig IL-1 receptor-related protein Sigirr/TIR8) (murine) (UniProt Q9JLZ8); experiment: bacterial two-hybrid (BacterioMatch), peptide bait against heart cDNA target clone
T6 sequence: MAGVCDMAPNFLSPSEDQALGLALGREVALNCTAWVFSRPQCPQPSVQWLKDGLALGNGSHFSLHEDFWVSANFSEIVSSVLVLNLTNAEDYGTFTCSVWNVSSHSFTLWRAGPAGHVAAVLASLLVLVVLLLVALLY

CPKTRRVPC (peptide, not shown: large carriers) [… (SEQ ID NO: 12), peptide insert in bait plasmid pBT-hp]
binding [1]: binds

CRPPR (peptide, not shown: large carriers) [CRPPR (SEQ ID NO: 1)-displaying phage (T7Select 415-1)]
binding [2]: binds
binding [3]: binds
binding [4]: binds

CKRAVR (peptide, not shown: large carriers) [CKRAVR (SEQ ID NO: 7)-displaying phage (T7Select 415-1)]
binding [5]: binds
binding [6]: binds

CRSTRANPC (peptide, not shown: large carriers) [… (SEQ ID NO: 11)-displaying phage (T7Select 415-1)]
binding [7]: binds
binding [8]: binds

CPKTRRVPC (peptide, not shown: large carriers) [… (SEQ ID NO: 12)-displaying phage (T7Select 415-1)]
binding [9]: binds
binding [10]: binds

CRSTRANPC [free synthetic peptide … (SEQ ID NO: 11)]
binding [11]: binds
binding [12]: binds

CKRAVR (peptide, not shown: large carriers) [CKRAVR (SEQ ID NO: 7), peptide insert in bait plasmid pBT-hp]
binding [13]: binds

Source: US20060160743A1 (SANFORD BURNHAM MEDICAL RESEARCH INSTITUTE, published 2006)
